Data published in the supplement of paper PMC10849652.
This is one part of the list.

Protein sequences, listed by entry. Tags and fused reporters are not part of them. Lines headed by an entry give the natural chain unless they say otherwise; changes in a name come on top.
UniProt O75616: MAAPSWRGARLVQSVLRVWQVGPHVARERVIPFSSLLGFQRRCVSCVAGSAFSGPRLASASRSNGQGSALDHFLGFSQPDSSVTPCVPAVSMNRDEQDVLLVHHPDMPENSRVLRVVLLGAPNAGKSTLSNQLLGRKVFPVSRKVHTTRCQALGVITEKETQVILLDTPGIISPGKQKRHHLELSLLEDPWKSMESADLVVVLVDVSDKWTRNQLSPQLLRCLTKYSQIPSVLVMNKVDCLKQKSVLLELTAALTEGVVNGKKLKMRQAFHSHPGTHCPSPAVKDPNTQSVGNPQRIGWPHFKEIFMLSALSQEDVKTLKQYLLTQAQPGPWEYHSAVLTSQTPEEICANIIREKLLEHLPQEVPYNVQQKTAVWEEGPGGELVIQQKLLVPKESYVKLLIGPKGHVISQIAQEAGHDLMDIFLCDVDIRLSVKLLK
UniProt P05198, whole entry, looked up: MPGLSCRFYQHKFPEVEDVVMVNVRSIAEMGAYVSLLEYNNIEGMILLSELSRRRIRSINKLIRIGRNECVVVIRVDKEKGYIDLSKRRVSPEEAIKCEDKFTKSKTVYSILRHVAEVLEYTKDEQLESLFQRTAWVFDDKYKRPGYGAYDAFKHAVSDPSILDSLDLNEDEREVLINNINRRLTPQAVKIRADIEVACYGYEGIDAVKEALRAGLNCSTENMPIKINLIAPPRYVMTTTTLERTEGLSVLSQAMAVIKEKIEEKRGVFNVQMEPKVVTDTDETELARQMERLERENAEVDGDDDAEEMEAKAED
UniProt Q96EB1: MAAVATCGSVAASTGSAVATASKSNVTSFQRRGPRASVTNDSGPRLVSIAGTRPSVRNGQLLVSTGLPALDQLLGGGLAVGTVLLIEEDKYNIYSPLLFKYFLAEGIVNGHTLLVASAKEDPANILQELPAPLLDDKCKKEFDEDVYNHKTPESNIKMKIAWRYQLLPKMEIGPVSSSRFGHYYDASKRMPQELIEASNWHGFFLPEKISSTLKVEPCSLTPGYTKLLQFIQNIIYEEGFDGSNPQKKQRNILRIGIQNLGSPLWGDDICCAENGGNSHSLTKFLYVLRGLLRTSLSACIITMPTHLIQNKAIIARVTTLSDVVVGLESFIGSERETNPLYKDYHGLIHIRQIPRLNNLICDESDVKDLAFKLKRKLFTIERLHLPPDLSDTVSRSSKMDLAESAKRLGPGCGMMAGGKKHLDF
UniProt O95208: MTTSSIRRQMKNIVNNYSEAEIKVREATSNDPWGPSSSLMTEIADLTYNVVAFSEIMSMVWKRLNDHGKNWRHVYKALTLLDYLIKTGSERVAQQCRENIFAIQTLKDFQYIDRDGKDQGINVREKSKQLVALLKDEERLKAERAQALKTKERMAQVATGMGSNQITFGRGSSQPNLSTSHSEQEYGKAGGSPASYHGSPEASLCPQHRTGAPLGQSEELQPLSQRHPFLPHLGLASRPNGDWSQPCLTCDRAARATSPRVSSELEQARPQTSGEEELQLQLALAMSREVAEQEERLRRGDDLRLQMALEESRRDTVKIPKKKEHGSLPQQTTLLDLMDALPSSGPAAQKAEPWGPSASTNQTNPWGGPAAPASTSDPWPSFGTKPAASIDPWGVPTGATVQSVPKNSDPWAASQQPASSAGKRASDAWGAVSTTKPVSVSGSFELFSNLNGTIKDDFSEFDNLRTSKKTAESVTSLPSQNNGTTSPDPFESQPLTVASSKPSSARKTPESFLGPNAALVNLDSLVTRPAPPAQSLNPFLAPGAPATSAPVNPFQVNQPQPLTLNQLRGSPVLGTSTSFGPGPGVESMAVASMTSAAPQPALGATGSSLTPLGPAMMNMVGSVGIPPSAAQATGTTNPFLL
UniProt Q9UBQ5, whole entry, looked up: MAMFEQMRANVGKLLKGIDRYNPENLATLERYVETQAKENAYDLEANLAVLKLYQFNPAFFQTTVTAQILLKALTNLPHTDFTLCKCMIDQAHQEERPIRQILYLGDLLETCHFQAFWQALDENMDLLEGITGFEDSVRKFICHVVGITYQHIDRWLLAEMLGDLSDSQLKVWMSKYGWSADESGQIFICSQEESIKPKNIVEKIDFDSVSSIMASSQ
UniProt P07814: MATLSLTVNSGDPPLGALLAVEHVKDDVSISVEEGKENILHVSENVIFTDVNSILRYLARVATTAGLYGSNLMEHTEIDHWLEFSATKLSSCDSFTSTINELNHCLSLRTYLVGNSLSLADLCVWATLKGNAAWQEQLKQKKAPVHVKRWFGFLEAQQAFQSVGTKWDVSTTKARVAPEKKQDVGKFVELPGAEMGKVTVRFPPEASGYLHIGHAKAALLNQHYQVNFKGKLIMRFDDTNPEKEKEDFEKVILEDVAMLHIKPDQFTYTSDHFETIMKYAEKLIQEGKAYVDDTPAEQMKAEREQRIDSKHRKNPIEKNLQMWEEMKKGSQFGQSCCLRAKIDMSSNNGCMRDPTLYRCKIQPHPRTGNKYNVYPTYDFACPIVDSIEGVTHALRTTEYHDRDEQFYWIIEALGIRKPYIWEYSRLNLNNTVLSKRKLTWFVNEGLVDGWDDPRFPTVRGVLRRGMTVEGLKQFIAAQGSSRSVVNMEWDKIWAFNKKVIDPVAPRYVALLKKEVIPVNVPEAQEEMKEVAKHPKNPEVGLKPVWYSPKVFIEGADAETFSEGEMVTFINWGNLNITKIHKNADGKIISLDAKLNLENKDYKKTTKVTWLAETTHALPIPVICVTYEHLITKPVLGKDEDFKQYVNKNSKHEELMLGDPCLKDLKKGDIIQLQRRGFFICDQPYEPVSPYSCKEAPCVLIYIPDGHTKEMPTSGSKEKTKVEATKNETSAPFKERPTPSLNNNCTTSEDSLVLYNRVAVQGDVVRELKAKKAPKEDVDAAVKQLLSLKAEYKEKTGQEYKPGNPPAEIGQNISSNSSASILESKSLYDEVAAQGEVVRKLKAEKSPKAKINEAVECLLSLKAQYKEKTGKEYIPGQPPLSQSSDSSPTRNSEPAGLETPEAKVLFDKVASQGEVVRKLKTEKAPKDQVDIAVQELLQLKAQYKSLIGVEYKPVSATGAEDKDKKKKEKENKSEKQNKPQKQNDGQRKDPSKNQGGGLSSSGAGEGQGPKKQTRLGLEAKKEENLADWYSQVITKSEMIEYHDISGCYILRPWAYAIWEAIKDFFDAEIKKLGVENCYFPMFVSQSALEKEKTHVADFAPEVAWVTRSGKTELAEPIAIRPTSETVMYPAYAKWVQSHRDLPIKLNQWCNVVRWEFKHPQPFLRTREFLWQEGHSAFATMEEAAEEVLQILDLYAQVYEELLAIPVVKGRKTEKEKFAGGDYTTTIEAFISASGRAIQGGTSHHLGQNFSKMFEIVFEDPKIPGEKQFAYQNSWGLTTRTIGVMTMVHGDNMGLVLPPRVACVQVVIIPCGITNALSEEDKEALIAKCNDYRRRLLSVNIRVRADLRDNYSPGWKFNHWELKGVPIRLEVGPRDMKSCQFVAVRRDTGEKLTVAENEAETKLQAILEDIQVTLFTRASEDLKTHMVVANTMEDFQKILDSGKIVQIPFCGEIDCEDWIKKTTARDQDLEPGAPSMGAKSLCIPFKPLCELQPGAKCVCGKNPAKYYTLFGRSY
UniProt Q9Y6I3: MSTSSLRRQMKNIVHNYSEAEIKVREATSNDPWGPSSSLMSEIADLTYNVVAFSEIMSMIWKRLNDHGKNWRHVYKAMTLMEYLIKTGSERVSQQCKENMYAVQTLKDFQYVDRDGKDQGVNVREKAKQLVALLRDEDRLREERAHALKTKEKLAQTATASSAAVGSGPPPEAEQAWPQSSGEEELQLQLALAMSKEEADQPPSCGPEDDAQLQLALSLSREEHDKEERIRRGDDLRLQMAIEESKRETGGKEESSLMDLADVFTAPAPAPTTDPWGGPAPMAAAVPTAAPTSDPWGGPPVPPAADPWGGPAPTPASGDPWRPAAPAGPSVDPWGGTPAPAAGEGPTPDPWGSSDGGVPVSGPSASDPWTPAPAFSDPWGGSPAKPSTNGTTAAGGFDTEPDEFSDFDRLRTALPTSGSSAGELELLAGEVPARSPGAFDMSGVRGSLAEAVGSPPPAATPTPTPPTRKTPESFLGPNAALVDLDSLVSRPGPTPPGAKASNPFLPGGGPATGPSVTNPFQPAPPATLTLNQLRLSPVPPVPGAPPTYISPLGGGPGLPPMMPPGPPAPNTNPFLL
UniProt P28715: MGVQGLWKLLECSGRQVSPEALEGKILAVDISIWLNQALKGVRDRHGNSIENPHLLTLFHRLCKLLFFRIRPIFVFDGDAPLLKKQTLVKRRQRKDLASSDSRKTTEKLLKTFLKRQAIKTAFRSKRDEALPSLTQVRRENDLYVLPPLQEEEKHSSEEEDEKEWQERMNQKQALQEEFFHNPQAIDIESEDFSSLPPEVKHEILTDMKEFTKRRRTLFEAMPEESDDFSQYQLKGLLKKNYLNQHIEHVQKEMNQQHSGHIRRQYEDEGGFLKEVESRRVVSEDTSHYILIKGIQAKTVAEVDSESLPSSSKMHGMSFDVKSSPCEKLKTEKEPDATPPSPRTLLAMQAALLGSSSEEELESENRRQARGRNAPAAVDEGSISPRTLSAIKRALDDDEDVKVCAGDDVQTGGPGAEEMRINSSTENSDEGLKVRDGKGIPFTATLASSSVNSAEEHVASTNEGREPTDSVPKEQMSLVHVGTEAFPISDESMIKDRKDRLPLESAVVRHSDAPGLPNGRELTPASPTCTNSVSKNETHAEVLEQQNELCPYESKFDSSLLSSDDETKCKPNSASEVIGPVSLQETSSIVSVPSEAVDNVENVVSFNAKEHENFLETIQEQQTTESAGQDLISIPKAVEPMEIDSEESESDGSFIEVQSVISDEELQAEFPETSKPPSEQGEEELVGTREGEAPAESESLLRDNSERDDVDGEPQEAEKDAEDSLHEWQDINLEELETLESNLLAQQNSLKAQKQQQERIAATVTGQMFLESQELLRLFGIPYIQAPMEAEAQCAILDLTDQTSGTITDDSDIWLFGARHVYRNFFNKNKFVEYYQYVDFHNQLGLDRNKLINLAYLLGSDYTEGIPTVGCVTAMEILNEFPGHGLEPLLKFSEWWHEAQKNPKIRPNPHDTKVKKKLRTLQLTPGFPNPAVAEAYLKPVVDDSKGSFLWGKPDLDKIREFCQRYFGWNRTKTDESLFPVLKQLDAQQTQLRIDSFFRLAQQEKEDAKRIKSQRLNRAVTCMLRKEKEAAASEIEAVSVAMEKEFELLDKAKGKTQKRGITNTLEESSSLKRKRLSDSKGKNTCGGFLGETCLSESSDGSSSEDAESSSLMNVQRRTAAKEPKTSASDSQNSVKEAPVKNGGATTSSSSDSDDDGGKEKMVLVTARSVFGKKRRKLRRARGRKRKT
UniProt Q8IV48: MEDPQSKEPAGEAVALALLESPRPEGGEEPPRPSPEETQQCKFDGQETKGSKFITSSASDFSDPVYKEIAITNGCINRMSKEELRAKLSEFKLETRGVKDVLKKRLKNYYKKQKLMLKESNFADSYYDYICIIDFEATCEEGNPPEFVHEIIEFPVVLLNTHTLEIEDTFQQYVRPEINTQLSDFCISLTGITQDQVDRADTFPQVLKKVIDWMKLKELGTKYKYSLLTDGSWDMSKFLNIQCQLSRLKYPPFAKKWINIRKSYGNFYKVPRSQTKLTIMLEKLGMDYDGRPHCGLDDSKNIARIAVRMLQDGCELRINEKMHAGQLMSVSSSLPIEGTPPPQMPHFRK
UniProt Q8TE02: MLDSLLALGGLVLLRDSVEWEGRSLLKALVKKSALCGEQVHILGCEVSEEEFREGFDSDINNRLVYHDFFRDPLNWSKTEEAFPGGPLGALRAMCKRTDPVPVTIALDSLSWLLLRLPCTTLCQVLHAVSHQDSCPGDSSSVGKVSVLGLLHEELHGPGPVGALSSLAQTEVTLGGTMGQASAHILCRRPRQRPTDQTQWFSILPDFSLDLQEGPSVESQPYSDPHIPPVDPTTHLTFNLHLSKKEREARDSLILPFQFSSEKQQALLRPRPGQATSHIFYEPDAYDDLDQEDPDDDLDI
UniProt Q15717, whole entry, looked up: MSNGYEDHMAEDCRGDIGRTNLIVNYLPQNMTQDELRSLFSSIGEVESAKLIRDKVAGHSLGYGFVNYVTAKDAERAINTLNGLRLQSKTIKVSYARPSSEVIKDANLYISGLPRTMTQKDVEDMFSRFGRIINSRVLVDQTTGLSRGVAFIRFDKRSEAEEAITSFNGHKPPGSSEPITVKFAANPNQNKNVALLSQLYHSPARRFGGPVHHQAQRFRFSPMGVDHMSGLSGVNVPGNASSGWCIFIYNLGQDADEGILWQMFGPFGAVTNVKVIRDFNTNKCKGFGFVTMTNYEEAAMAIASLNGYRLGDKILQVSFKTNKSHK

What was measured:
Assay in all cases: log2 fold change, soluble protein after heating vs DMSO (PISA); higher = thermal stabilisation; K562 lysate, 10 uM; active = over 0.2 and 3.5 SD of the protein, either way, in both replicates (recomputed)
vemurafenib = compound: CCCS(=O)(=O)Nc1ccc(F)c(C(=O)c2c[nH]c3ncc(-c4ccc(Cl)cc4)cc23)c1F [vemurafenib]
Summary of the method: (§1)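 Dounce homogenisation of K562 pellets in PBS pH 7.4 with 1 mM MgCl2 produced a crude extract, used at 1 mg/mL protein. Exposure to 10 μM compound lasted 30 min, and aliquots were then heated for 3 min across 48°C-58°C, pooled and brought to 0.5% NP-40 at 4°C. The supernatant after 21,000xg for 90 min was quantified by TMTpro 16plex LC-MS/MS with channel sums equalised. Duplicate values are given as log-two fold change in thermal stability relative to solvent controls.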

[1] = compound: CCCS(=O)(=O)Nc1ccc(F)c(C(=O)c2c[nH]c3ncc(Cl)cc23)c1F
Summary of the method: as §1

barasertib = compound: CCN(CCCOc1ccc2c(Nc3cc(CC(=O)Nc4cccc(F)c4)[nH]n3)ncnc2c1)CCOP(=O)(O)O [barasertib]
Summary of the method: as §1

[2] = compound: CC[C@@H]1C(=O)N(C)c2cnc(Nc3ccc(C(=O)NC4CCN(C)CC4)cc3OC)nc2N1C1CCCC1
Summary of the method: as §1

volasertib = compound: CC[C@@H]1C(=O)N(C)c2cnc(Nc3ccc(C(=O)N[C@H]4CC[C@H](N5CCN(CC6CC6)CC5)CC4)cc3OC)nc2N1C(C)C [volasertib]
Summary of the method: as §1

[3] = compound: CCn1c(C(=O)N(C2CC2)C2CC2)cc2c3c(ncn3C)c(Nc3cc(C)n(C)n3)nc21
Summary of the method: as §1

[4] = compound: CCn1cc(-c2ccnc3[nH]c(-c4cccc(CN(C)C)c4)cc23)c(-c2ccc(NC(=O)N(C)C)cc2)n1
Summary of the method: as §1

[5] = compound: CN1CCC(CNc2ccc3ncc(-c4cccc(OC(F)(F)F)c4)n3n2)CC1
Summary of the method: as §1

saracatinib = compound: CN1CCN(CCOc2cc(OC3CCOCC3)c3c(Nc4c(Cl)ccc5c4OCO5)ncnc3c2)CC1 [saracatinib]
Summary of the method: as §1

sotrastaurin = compound: CN1CCN(c2nc(C3=C(c4c[nH]c5ccccc45)C(=O)NC3=O)c3ccccc3n2)CC1 [sotrastaurin]
Summary of the method: as §1

alvocidib = compound: CN1CC[C@H](c2c(O)cc(O)c3c(=O)cc(-c4ccccc4Cl)oc23)[C@H](O)C1 [alvocidib]
Summary of the method: as §1

Tubastatin A = compound: CN1CCc2c(c3ccccc3n2Cc2ccc(C(=O)NO)cc2)C1 [Tubastatin A]
Summary of the method: as §1

[6] = compound: CNC(=O)C1=CC=CC=C1NC2=NC(=NC=C2Cl)NC3=C(C=C(C=C3)N4CCOCC4)OC
Summary of the method: as §1

defactinib = compound: CNC(=O)c1ccc(Nc2ncc(C(F)(F)F)c(NCc3nccnc3N(C)S(C)(=O)=O)n2)cc1 [defactinib]
Summary of the method: as §1

[7] = compound: CNc1nc(-c2ccc3c(N)n[nH]c3c2)cc(N2C[C@@H](C(=O)NC3CCCCC3)CC[C@H]2C)n1
Summary of the method: as §1

encorafenib = compound: COC(=O)N[C@@H](C)CNc1nccc(-c2cn(C(C)C)nc2-c2cc(Cl)cc(NS(C)(=O)=O)c2F)n1 [encorafenib]
Summary of the method: as §1

[8] = compound: COC(=O)[C@H](CCSC)NC(=O)C1=C(C=C(C=C1)NC[C@H](CS)N)C2=CC=CC=C2
Summary of the method: as §1

alisertib = compound: COc1cc(Nc2ncc3c(n2)-c2ccc(Cl)cc2C(c2c(F)cccc2OC)=NC3)ccc1C(=O)O [alisertib]
Summary of the method: as §1

[9] = compound: COc1cc2nc(-c3cc(F)ccc3O)nc(N[C@@H]3CNC[C@H]3C(C)(C)O)c2cc1OC
Summary of the method: as §1

gefitinib = compound: COc1cc2ncnc(Nc3ccc(F)c(Cl)c3)c2cc1OCCCN1CCOCC1 [gefitinib]
Summary of the method: as §1

Measured: log2 fold change

ERBIN isoform 8 (UniProt Q96RT1)
inactive: vemurafenib 0.038 | [1] 0.015 | barasertib -0.004 | [2] 0.068 | volasertib -0.013 | [4] -0.028 | [5] 0.1 | saracatinib -0.001 | sotrastaurin 0.032 | alvocidib -0.01 | Tubastatin A 0.031 | [6] 0.025 | defactinib -0.031 | [7] -0.028 | encorafenib 0.013 | [8] -0.029 | alisertib -0.028 | [9] -0.001 | gefitinib 0.03
active: [3] 0.338

ERAL1 (UniProt O75616)
inactive: vemurafenib -0.058 | [1] -0.016 | barasertib -0.032 | [2] 0.065 | volasertib -0.046 | [3] 0.059 | [4] -0.065 | saracatinib -0.035 | sotrastaurin 0.02 | alvocidib 0.005 | Tubastatin A -0.151 | [6] -0.03 | defactinib 0.027 | [7] -0.015 | encorafenib -0.018 | [8] 0.058 | alisertib -0.008 | [9] 0.016 | gefitinib 0.02
active: [5] -0.359

ENPP3 (UniProt O14638)
inactive: vemurafenib 0.037 | [1] 0.019 | barasertib 0.021 | [2] 0.035 | volasertib 0.024 | [3] -0.034 | [4] -0.006 | [5] 0.024 | saracatinib 0.032 | sotrastaurin 0.019 | alvocidib 0.009 | Tubastatin A 0.016 | [6] -0.006 | defactinib 0.029 | [7] 0.001 | encorafenib -0.001 | [8] -0.036 | alisertib -0.004 | [9] 0.01 | gefitinib -0.037

EIF2S1 (UniProt P05198)
inactive: vemurafenib 0.005 | [1] -0.026 | barasertib -0.036 | [2] 0.009 | volasertib 0.018 | [3] 0.001 | [4] -0.038 | [5] 0.02 | saracatinib -0.016 | sotrastaurin -0.009 | alvocidib -0.027 | Tubastatin A 0.057 | [6] -0.012 | defactinib -0.019 | [7] -0.004 | encorafenib -0.017 | [8] -0.008 | alisertib -0.013 | [9] 0.001 | gefitinib -0.011

ELP4 (UniProt Q96EB1)
inactive: vemurafenib 0.015 | [1] -0.013 | barasertib -0.073 | [2] 0.046 | volasertib -0.004 | [3] -0.015 | [4] 0.001 | [5] 0.029 | saracatinib 0.01 | sotrastaurin 0.021 | alvocidib -0.029 | Tubastatin A -0.022 | [6] 0.022 | defactinib 0.032 | [7] 0.072 | encorafenib 0.033 | [8] -0.03 | alisertib -0.003 | [9] 0.002 | gefitinib -0.006

EPN2 (UniProt O95208)
inactive: vemurafenib 0.019 | [1] 0.027 | barasertib 0.043 | [2] 0.044 | volasertib 0.016 | [3] -0.002 | [5] 0.08 | saracatinib 0.004 | sotrastaurin 0.002 | alvocidib -0.079 | Tubastatin A -0.008 | [6] 0.001 | defactinib 0.005 | [7] 0.009 | encorafenib 0.016 | [8] -0.051 | alisertib 0.002 | [9] 0.03 | gefitinib -0.014
active: [4] -0.417

EIF3K (UniProt Q9UBQ5)
inactive: vemurafenib -0.028 | [1] -0.001 | barasertib 0.023 | [2] -0.049 | volasertib -0.015 | [3] -0.029 | [4] -0.016 | [5] -0.08 | saracatinib 0.023 | sotrastaurin 0.002 | alvocidib 0.017 | Tubastatin A 0.002 | [6] 0.009 | defactinib 0.031 | [7] 0.041 | encorafenib -0.012 | [8] 0.022 | alisertib 0.03 | [9] -0.012 | gefitinib -0.032

ERAP1 isoform 2 (UniProt Q9NZ08)
inactive: vemurafenib 0.017 | [1] 0.001 | barasertib -0.006 | [2] 0.001 | volasertib 0.011 | [3] -0.018 | [4] 0.051 | [5] -0.016 | saracatinib 0.01 | sotrastaurin 0.036 | alvocidib -0.015 | Tubastatin A 0.041 | [6] -0.013 | defactinib -0.002 | [7] 0.03 | encorafenib -0.007 | [8] -0.002 | alisertib -0.016 | [9] 0.019 | gefitinib 0.002

EPRS (UniProt P07814)
inactive: vemurafenib 0.01 | [1] -0.001 | barasertib 0.001 | [2] -0.077 | volasertib -0.068 | [3] 0.024 | [4] -0.025 | [5] -0.035 | saracatinib 0.014 | sotrastaurin 0.02 | alvocidib 0.012 | Tubastatin A -0.11 | [6] 0.002 | defactinib 0.003 | [7] -0.015 | encorafenib -0.004 | [8] 0.107 | alisertib 0.015 | [9] -0.01 | gefitinib -0.032

EIF4H (UniProt Q15056)
inactive: vemurafenib -0.036 | [1] 0.025 | barasertib -0.036 | [2] 0.071 | volasertib 0.026 | [3] -0.013 | [4] -0.01 | [5] 0.012 | saracatinib -0.021 | sotrastaurin 0.058 | alvocidib -0.031 | Tubastatin A 0.02 | [6] 0.009 | defactinib 0.039 | [7] 0.005 | encorafenib -0.01 | [8] -0.032 | alisertib 0.044 | [9] -0.027 | gefitinib 0.007

EPN1 (UniProt Q9Y6I3)
inactive: vemurafenib -0.003 | [1] 0.019 | barasertib -0.041 | [2] 0.022 | volasertib -0.026 | [3] -0.008 | [4] 0.144 | [5] -0.015 | saracatinib 0.026 | sotrastaurin -0.008 | alvocidib -0.01 | Tubastatin A 0.02 | [6] -0.013 | defactinib -0.014 | [7] 0.029 | encorafenib -0.024 | [8] -0.079 | alisertib -0.019 | [9] 0.011 | gefitinib 0.03

ERCC5 (UniProt P28715)
inactive: vemurafenib 0.018 | [1] 0.034 | barasertib -0.044 | [2] -0.016 | volasertib 0 | [3] -0.083 | [4] 0.001 | [5] 0.013 | saracatinib -0.006 | sotrastaurin 0.033 | alvocidib -0.016 | Tubastatin A 0.027 | [6] 0.076 | defactinib 0.032 | [7] 0.008 | encorafenib 0.014 | [8] -0.039 | alisertib -0.023 | [9] 0.006 | gefitinib -0.043

Two entries picked at random from the list so far:
ERAP1 isoform 2 (UniProt Q9NZ08)
inactive: vemurafenib 0.017 | [1] 0.001 | barasertib -0.006 | [2] 0.001 | volasertib 0.011 | [3] -0.018 | [4] 0.051 | [5] -0.016 | saracatinib 0.01 | sotrastaurin 0.036 | alvocidib -0.015 | Tubastatin A 0.041 | [6] -0.013 | defactinib -0.002 | [7] 0.03 | encorafenib -0.007 | [8] -0.002 | alisertib -0.016 | [9] 0.019 | gefitinib 0.002

EIF3K (UniProt Q9UBQ5)
inactive: vemurafenib -0.028 | [1] -0.001 | barasertib 0.023 | [2] -0.049 | volasertib -0.015 | [3] -0.029 | [4] -0.016 | [5] -0.08 | saracatinib 0.023 | sotrastaurin 0.002 | alvocidib 0.017 | Tubastatin A 0.002 | [6] 0.009 | defactinib 0.031 | [7] 0.041 | encorafenib -0.012 | [8] 0.022 | alisertib 0.03 | [9] -0.012 | gefitinib -0.032

Following part

ENY2 (UniProt Q9NPA8)
inactive: vemurafenib -0.057 | [1] 0.016 | barasertib 0.072 | [2] -0.036 | volasertib 0.033 | [3] 0.048 | saracatinib -0.003 | sotrastaurin -0.003 | Tubastatin A -0.024 | [6] 0.016 | defactinib 0.096 | [7] -0.084 | encorafenib 0.004 | [8] -0.003 | alisertib 0.024 | [9] -0.019 | gefitinib -0.016
active: [4] 0.886 | [5] -0.406 | alvocidib 0.351

ERI1 (UniProt Q8IV48)
inactive: vemurafenib 0.01 | [1] 0.01 | barasertib 0.008 | [2] -0.018 | volasertib -0.023 | [3] -0.008 | [4] 0.065 | [5] -0.112 | saracatinib -0.006 | sotrastaurin 0.034 | alvocidib 0.008 | Tubastatin A 0 | [6] 0.026 | defactinib 0.004 | [7] -0.021 | encorafenib 0.025 | [8] 0.118 | alisertib -0.015 | [9] -0.02 | gefitinib -0.007

ELP5 isoform 4 (UniProt Q8TE02)
inactive: vemurafenib -0.025 | [1] 0 | barasertib 0.004 | [2] 0.116 | volasertib 0.003 | [3] -0.028 | [4] -0.025 | [5] 0.019 | saracatinib -0.046 | sotrastaurin 0.025 | alvocidib -0.015 | Tubastatin A 0.034 | [6] 0.007 | defactinib -0.062 | [7] 0.051 | encorafenib 0.033 | [8] -0.114 | alisertib 0.056 | [9] 0.029 | gefitinib -0.006

ELAVL1 isoform 2 (UniProt Q15717)
inactive: vemurafenib 0.035 | [1] 0.024 | barasertib -0.013 | [2] -0.03 | volasertib -0.029 | [3] 0.035 | [4] 0.013 | [5] -0.083 | saracatinib -0.001 | sotrastaurin 0.024 | alvocidib 0.013 | Tubastatin A -0.187 | [6] 0.05 | defactinib -0.005 | [7] -0.011 | encorafenib 0.018 | [8] 0.166 | alisertib 0.019 | [9] -0.002 | gefitinib 0.048
